# According to PubChem BioAssay AID2685 (National Center for Advancing Translational Sciences (NCATS), 2010):
# The other results are listed elsewhere or left out. These are further read-outs of the screen, such as a control signal, another cell line or another target. No call is given for them. Compounds called inactive in the main read-out are mostly missing here. Words in brackets tell the shape of the fitted curve; partial curves, single points and poor fits give uncertain potencies.
# Assay: qHTS Assay for Lipid Storage Modulators in Drosophila S3 Cells;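 as to cell number change: cells counted by Cell Tracker Red CMTPX staining in the red channel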
# Conditions: BODIPY lipid droplet fluorescence, 18-24 h; for cell number change: measured here: cell count max response, cells fed with added oleic acid
# Summary of the method: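 Drosophila S3 cells loaded with oleic acid (400 uM, as added) and compounds at several concentrations; lipid droplets imaged by 488-nm laser-scanning cytometry, 500–530 nm intensity and object ratio to cell channel. Percent activity normalized to 20 uM Triacsin C.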
# [1] = measured here: cell number channel AC50, cells fed with added oleic acid
# [2] = measured here: lipid fluorescence (Fed channel) AC50, cells fed with added oleic acid
Structure (SMILES),cell number change [%],AC50 [1],AC50 [2]
CN(C)CCCNC(=O)c1ccc(-c2ccccc2)cc1,56.4,"0.0651 µM [falling, full curve, poor fit]","0.082 µM [falling, full curve, poor fit]"
O=C1CCCN1CCC(=O)N1CCCC(Nc2ccc(F)cc2)C1 (stereo unspecified),17.6,–,"6.51 µM [rising, partial curve, poor fit]"
CCc1nnc2n1N=C(c1ccc([N+](=O)[O-])cc1)CS2,-23.8,–,"18.4 µM [falling, single point]"
CC(C)Oc1ccc(CCc2nnc(SC(C)C(=O)O)n2-c2ccccc2)cc1 (stereo unspecified),-14,–,–
O=C(Cc1ccccc1F)Nc1ccc(S(=O)(=O)N2CCCCC2)cc1,–,–,"6.51 µM [falling, single point]"
Cc1cc(NC(=O)CCc2ccc(C)o2)no1,-11.3,–,"23.1 µM [falling, single point]"
Cc1ccc(C)c(CN2CCC(CNC(=O)Nc3cccc(Cl)c3C)CC2)c1,–,–,"1.84 µM [falling, partial curve, poor fit]"
CCOc1ccccc1C1C(C(=O)Nc2ccccc2OC)=C(C)Nc2nnnn21 (stereo unspecified),10.8,–,"9.2 µM [rising, partial curve]"
CCOc1ccc(C(C(=O)NCC2CCCO2)N(Cc2cccs2)C(=O)c2snc(C(N)=O)c2N)cc1 (stereo unspecified),–,–,"29.1 µM [falling, single point]"
O=C(O)Cn1c(CC(=O)N2CCCC2)nc2ccccc21,-27.4,–,"0.731 µM [falling, full curve, poor fit]"
O=C(c1cccc([N+](=O)[O-])c1)N1CCCN(C(=O)c2cccc([N+](=O)[O-])c2)CC1,14.1,–,"1.03 µM [rising, partial curve, poor fit]"
CCS(=O)(=O)Nc1cc(C(=O)O)ccc1C,-31.9,"1.16 µM [falling, partial curve, poor fit]",–
N#CC1=C(SCc2ccc(C#N)cc2)N=C(N)C(c2nc(-c3ccccc3)cs2)C12CCCCC2 (stereo unspecified),–,–,"3.66 µM [rising, single point]"
Cc1cc(C)c(S(=O)(=O)Nc2ccc(OCC(=O)O)cc2)c(C)c1,-37.2,"0.13 µM [falling, full curve, poor fit]","0.164 µM [falling, full curve, poor fit]"
CCOc1cccc2cc(-c3nnc(NCc4ccc5c(c4)OCO5)s3)c(=O)oc12,-6.45,"3.66 µM [falling, single point]","6.51 µM [falling, single point]"
c1cnc(N2CCN(Cc3ccc4c(c3)OCO4)CC2)cn1,81.1,–,–
COc1cccc(CN(C)C(=O)Cc2c[nH]c3ccccc23)c1OC,-20.5,–,"0.092 µM [falling, partial curve, poor fit]"
CC1=C(C(=O)OCC2CCCO2)C(c2ccccc2)C2=C(CCCC2=O)N1 (stereo unspecified),-29,–,"18.4 µM [falling, single point]"
CS(=O)(=O)c1ccc2nc(NC(=O)CN3CCCCCC3)sc2c1,17.9,–,–

# Some of these compounds in order of length of the SMILES, low to high.
Structure (SMILES),cell number change [%],AC50 [1],AC50 [2]
Cc1cc(NC(=O)CCc2ccc(C)o2)no1,-11.3,–,"23.1 µM [falling, single point]"
CCS(=O)(=O)Nc1cc(C(=O)O)ccc1C,-31.9,"1.16 µM [falling, partial curve, poor fit]",–
O=C(O)Cn1c(CC(=O)N2CCCC2)nc2ccccc21,-27.4,–,"0.731 µM [falling, full curve, poor fit]"
CCc1nnc2n1N=C(c1ccc([N+](=O)[O-])cc1)CS2,-23.8,–,"18.4 µM [falling, single point]"
COc1cccc(CN(C)C(=O)Cc2c[nH]c3ccccc23)c1OC,-20.5,–,"0.092 µM [falling, partial curve, poor fit]"
O=C(Cc1ccccc1F)Nc1ccc(S(=O)(=O)N2CCCCC2)cc1,–,–,"6.51 µM [falling, single point]"
CC1=C(C(=O)OCC2CCCO2)C(c2ccccc2)C2=C(CCCC2=O)N1 (stereo unspecified),-29,–,"18.4 µM [falling, single point]"
CCOc1cccc2cc(-c3nnc(NCc4ccc5c(c4)OCO5)s3)c(=O)oc12,-6.45,"3.66 µM [falling, single point]","6.51 µM [falling, single point]"
N#CC1=C(SCc2ccc(C#N)cc2)N=C(N)C(c2nc(-c3ccccc3)cs2)C12CCCCC2 (stereo unspecified),–,–,"3.66 µM [rising, single point]"
CCOc1ccc(C(C(=O)NCC2CCCO2)N(Cc2cccs2)C(=O)c2snc(C(N)=O)c2N)cc1 (stereo unspecified),–,–,"29.1 µM [falling, single point]"
O=C(c1cccc([N+](=O)[O-])c1)N1CCCN(C(=O)c2cccc([N+](=O)[O-])c2)CC1,14.1,–,"1.03 µM [rising, partial curve, poor fit]"

# (continued)

Structure (SMILES),cell number change [%],AC50 [1],AC50 [2]
CCOc1ccc(CNC(=O)C2CCN(S(=O)(=O)c3ccc4c(c3)CCCC(=O)N4)CC2)cc1,16.4,–,"5.8 µM [rising, full curve]"
CCN1CCCC1CNC(=O)CSc1cc(=O)n(CC)c2ccccc12 (stereo unspecified),-0.593,"0.651 µM [falling, single point]","0.731 µM [falling, single point]"
O=C(COC(=O)C1CCCCC1)Nc1ccccc1OC(F)F,28.6,–,–
CC1=CC(C)(C)N(C(=O)c2ccc(F)cc2)c2cc3c(cc21)OCO3,-39.4,"20.6 µM [falling, partial curve]",–
CCn1cc(C2=NC(c3ccccc3)CO2)c2ccccc21 (stereo unspecified),7.13,–,"0.206 µM [rising, full curve, poor fit]"
CCc1ccccc1NC(=O)CCS(=O)(=O)c1ccc(C)cc1,34.6,"14.6 µM [rising, partial curve]",–
O=C(CSc1ncnc2ccccc12)NCCc1ccccc1,64,"29.1 µM [rising, single point]","29.1 µM [rising, single point]"
Cc1ccc(C(=O)NC(Cc2c[nH]c3ccccc23)C(=O)O)cc1 (stereo unspecified),–,–,"18.4 µM [falling, partial curve]"
COc1ccc(CCN=C(N)NS(=O)(=O)c2ccc(C)c(C)c2)cc1OC,23.2,–,"2.24 µM [rising, partial curve]"
Cc1noc(C)c1COc1ccccc1C(=O)NNC(=O)C(C)Oc1ccccc1F (stereo unspecified),131,"4.11 µM [falling, single point]","29.1 µM [rising, single point]"
O=C(Cc1cn(-c2ccccc2)nc1-c1ccccc1)N1CCCCC1,-7.89,–,"6.31 µM [falling, single point]"
CCn1nc(C)c(CNC(=O)c2cc(COc3ccccc3SC)on2)c1C,6.37,"3.66 µM [rising, single point]","6.51 µM [rising, single point]"
COc1ccccc1C(=O)Nc1ccnn1C1CCN(CCCC2CCCC2)CC1,–,–,"6.51 µM [falling, single point]"
Fc1cccc(Cl)c1CSc1ncn[nH]1,-21.7,–,–
Cn1c2ccc(F)cc2c2nc3ccccc3nc21,-29.9,–,"29.1 µM [falling, single point]"
CS(=O)(=O)c1ccc(C(=O)Nc2ccc(N3CCCCC3)cc2)c(Cl)c1,70.9,"23.1 µM [rising, single point]",–
CCSc1ncc(/C=N/Nc2ccccc2)n1C,–,–,"0.651 µM [rising, single point]"
O=C1c2ccccc2C(=O)c2c1cccc2N1CCN(Cc2ccccc2)CC1,–,–,"6.51 µM [falling, single point]"
Cc1cc(C)c(NC(=O)/C(=C/c2ccccc2)c2ccccc2)c(C)c1,-37.4,"11.6 µM [falling, partial curve]","0.651 µM [falling, full curve, poor fit]"
